Source: PubChem BioAssay AID248 (DTP/NCI, 2004)
The list does not hold the whole screen: it gathers tests that were run many times, whatever their T/C, doses with no T/C, and many T/C values between a quarter and a half above the control. Further doses and runs are listed elsewhere. T/C: endpoint of the treated group in % of that of the vehicle group. Some entries give survivors of the animals treated and no T/C: the source files T/C as zero there, which appears to mark a toxic dose or a test without result, not a measured value. Some doses without a T/C left all or most animals alive at the check, yet need not have been tolerated: survival well below the control is almost never listed, so the zero probably covers shortened survival too. Counts of survivors are from the toxicity check (mostly the fifth day) where no day follows; animals may have died later. Schedule codes are those of the source, read here as Q, the interval in days (D) or hours (H), X, the number of doses. Some schedule codes hold Z or #, which are not explained here. Some entries hold several experiments; the results are listed from low to high. For survival time, the PubChem record calls one and a half times the control and up active, and a quarter to a half above the control has no call in these data; cut-offs in other NCI protocols can differ. Marks such as (2×) stand for listed records that agree. Some T/C values are followed by the survivors on the day toxicity was checked, most often the fifth; where none is given, no animal had died by that day.

Test system: L1210 leukemia ip in BDF1 mice, survival T/C
Experiment: NCI In Vivo Anticancer Drug Screen. Data for tumor model L1210 Leukemia (intraperitoneal) in B6D2F1 (BDF1) mice
Conditions: higher T/C = longer survival
[1] = T/C endpoint: mean survival time, dose: 200.0 mg/kg/injection, schedule: Q01DX001 (ip), vehicle: saline with Tween-80

CC1CCC(NC(=O)N(CCCl)N=O)CC1 (centres undefined)
T/C (T/C endpoint: mean survival time, dose: 1.7 mg/kg/injection, schedule: Q01DX009 (ip), vehicle: saline with Tween-80): 126 and 128 % of control | T/C (T/C endpoint: mean survival time, dose: 2.5 mg/kg/injection, schedule: Q01DX Z (ip), vehicle: Klucel (hydroxypropylcellulose) (HPC)): 135 % of control [5 of 6 alive] | T/C (T/C endpoint: mean survival time, dose: 3.3 mg/kg/injection, schedule: Q01DX009 (ip), vehicle: saline with Tween-80): 145, 153, 155, 158 % of control | T/C (T/C endpoint: mean survival time, dose: 4.0 mg/kg/injection, schedule: Q01DX001 (ip), vehicle: other): 132 % of control | T/C (T/C endpoint: mean survival time, dose: 4.4 mg/kg/injection, schedule: Q04DX004 (ip), vehicle: saline with Tween-80): 130 % of control | T/C (T/C endpoint: mean survival time, dose: 5.0 mg/kg/injection, schedule: Q01DX Z (ip), vehicle: Klucel (hydroxypropylcellulose) (HPC)): 133 % of control | T/C (T/C endpoint: mean survival time, dose: 6.25 mg/kg/injection, schedule: Q01DX001 (ip), vehicle: other): 128 % of control | T/C (T/C endpoint: mean survival time, dose: 6.5 mg/kg/injection, schedule: Q01DX009 (ip), vehicle: saline with Tween-80): 185, 228, 229, 252 % of control | T/C (T/C endpoint: mean survival time, dose: 8.0 mg/kg/injection, schedule: Q04DX002 (ip), vehicle: saline with Tween-80): 131, 137, 138 % of control (2×) | survivor count (T/C endpoint: mean survival time, dose: 10.0 mg/kg/injection, schedule: Q01DX001 (ip), vehicle: saline): 10 of 10 | T/C (T/C endpoint: mean survival time, dose: 10.0 mg/kg/injection, schedule: Q01DX001 (iv), vehicle: Klucel (hydroxypropylcellulose) (HPC)): 138 % of control | T/C (T/C endpoint: mean survival time, dose: 10.0 mg/kg/injection, schedule: Q01DX001 (iv), vehicle: saline): 142 % of control | T/C (T/C endpoint: mean survival time, dose: 13.0 mg/kg/injection, schedule: Q01DX009 (ip), vehicle: saline with Tween-80): 173, 297, 306, 313 % of control | T/C (T/C endpoint: mean survival time, dose: 16.0 mg/kg/injection, schedule: Q01DX001 (ip), vehicle: saline with Tween-80, evaluated on day 5): 142 % of control | T/C (T/C endpoint: mean survival time, dose: 16.0 mg/kg/injection, schedule: Q01DX001 (ip), vehicle: saline with Tween-80, evaluated on day 60): 142 % of control | T/C (T/C endpoint: mean survival time, dose: 16.0 mg/kg/injection, schedule: Q04DX002 (ip), vehicle: saline with Tween-80): 166, 196, 202, 213 % of control | T/C (T/C endpoint: mean survival time, dose: 20.0 mg/kg/injection, schedule: Q01DX Z (ip), vehicle: Klucel (hydroxypropylcellulose) (HPC)): 125 % of control | T/C (T/C endpoint: mean survival time, dose: 25.0 mg/kg/injection, schedule: Q01DX001 (ip), vehicle: saline with Tween-80): 127 % of control | T/C (T/C endpoint: mean survival time, dose: 32.0 mg/kg/injection, schedule: Q04DX002 (ip), vehicle: saline with Tween-80): 238, 295, 310, 313 % of control | survivor count (T/C endpoint: mean survival time, dose: 33.0 mg/kg/injection, schedule: Q01DX001 (ip), vehicle: clinical formulation): 4 of 6 | survivor count (T/C endpoint: mean survival time, dose: 33.0 mg/kg/injection, schedule: Q01DX001 (iv), vehicle: clinical formulation): 3 of 6 | T/C (T/C endpoint: mean survival time, dose: 36.0 mg/kg/injection, schedule: Q01DX001 (ip), vehicle: other, evaluated on day 60): 652, 676, 730 % of control | T/C (T/C endpoint: mean survival time, dose: 36.0 mg/kg/injection, schedule: Q01DX001 (ip), vehicle: other, run until all animals had died): 271 % of control | survivor count (T/C endpoint: mean survival time, dose: 40.0 mg/kg/injection, schedule: Q01DX001 (ip), vehicle: saline): 10 of 10 | T/C (T/C endpoint: mean survival time, dose: 50.0 mg/kg/injection, schedule: Q01DX001 (ip), vehicle: saline with Tween-80, evaluated on day 5): 92 % of control | T/C (T/C endpoint: mean survival time, dose: 50.0 mg/kg/injection, schedule: Q01DX001 (ip), vehicle: saline with Tween-80, evaluated on day 30): 131, 294, 308, 329 % of control | T/C (T/C endpoint: mean survival time, dose: 50.0 mg/kg/injection, schedule: Q01DX001 (ip), vehicle: saline with Tween-80, evaluated on day 60): 92 % of control | T/C (T/C endpoint: mean survival time, dose: 54.0 mg/kg/injection, schedule: Q01DX001 (ip), vehicle: other, evaluated on day 60): 602, 689, 701 % of control | T/C (T/C endpoint: mean survival time, dose: 54.0 mg/kg/injection, schedule: Q01DX001 (ip), vehicle: other, run until all animals had died): 241 % of control | survivor count (T/C endpoint: mean survival time, dose: 75.0 mg/kg/injection, schedule: Q01DX001 (ip), vehicle: clinical formulation): 0 of 6 | T/C (T/C endpoint: mean survival time, dose: 100.0 mg/kg/injection, schedule: Q01DX001 (ip), vehicle: saline with Tween-80, evaluated on day 5): 72 % of control | T/C (T/C endpoint: mean survival time, dose: 100.0 mg/kg/injection, schedule: Q01DX001 (ip), vehicle: saline with Tween-80, evaluated on day 30): 130, 137, 139, 142 % of control | survivor count (T/C endpoint: mean survival time, dose: 100.0 mg/kg/injection, schedule: Q01DX001 (ip), vehicle: saline with Tween-80): 10 of 10 | survivor count (T/C endpoint: mean survival time, dose: 125.0 mg/kg/injection, schedule: Q01DX001 (ip), vehicle: other): 6 of 6 | T/C [1]: 90, 102, 110 % of control | survivor count [1]: 10 of 10 | survivor count (T/C endpoint: mean survival time, dose: 250.0 mg/kg/injection, schedule: Q01DX001 (ip), vehicle: other): 4 of 6 | survivor count (T/C endpoint: mean survival time, dose: 400.0 mg/kg/injection, schedule: Q01DX001 (ip), vehicle: saline with Tween-80): 9 of 10 | survivor count (T/C endpoint: mean survival time, dose: 500.0 mg/kg/injection, schedule: Q01DX001 (ip), vehicle: other): 0 of 6 | survivor count (T/C endpoint: mean survival time, dose: 750.0 mg/kg/injection, schedule: Q01DX001 (ip), vehicle: other): 0 of 6 | survivor count (T/C endpoint: mean survival time, dose: 1000.0 mg/kg/injection, schedule: Q01DX001 (ip), vehicle: other): 0 of 6 | T/C (T/C endpoint: median survival time, dose: 3.75 mg/kg/injection, schedule: Q01DX009 (ip), vehicle: saline): 148 % of control [7 of 8 alive] | T/C (T/C endpoint: median survival time, dose: 25.0 mg/kg/injection, schedule: Q01DX001 (ip), vehicle: saline with Tween-80, evaluated on day 7): 131 % of control | T/C (T/C endpoint: median survival time, dose: 25.0 mg/kg/injection, schedule: Q01DX001 (ip), vehicle: saline with Tween-80, evaluated on day 50): 131 % of control | survivor count (T/C endpoint: median survival time, dose: 30.0 mg/kg/injection, schedule: Q01DX009 (ip), vehicle: saline): 8 of 8 | T/C (T/C endpoint: median survival time, dose: 50.0 mg/kg/injection, schedule: Q01DX001 (ip), vehicle: saline with Tween-80, evaluated on day 7): 137 % of control | T/C (T/C endpoint: median survival time, dose: 50.0 mg/kg/injection, schedule: Q01DX001 (ip), vehicle: saline with Tween-80, evaluated on day 50): 137 % of control [7 of 8 alive] | T/C (T/C endpoint: median survival time, dose: 200.0 mg/kg/injection, schedule: Q01DX001 (ip), vehicle: saline with Tween-80, evaluated on day 7): 137 % of control | T/C (T/C endpoint: median survival time, dose: 200.0 mg/kg/injection, schedule: Q01DX001 (ip), vehicle: saline with Tween-80, evaluated on day 50): 137 % of control

[CH3][Sn]([Br])([Br])[CH2]CCCBr
survivor count (T/C endpoint: mean survival time, dose: 50.0 mg/kg/injection, schedule: Q01DX009 (ip), vehicle: saline): 0 of 3 | survivor count (T/C endpoint: mean survival time, dose: 100.0 mg/kg/injection, schedule: Q01DX009 (ip), vehicle: saline): 0 of 3 | survivor count (T/C endpoint: mean survival time, dose: 200.0 mg/kg/injection, schedule: Q01DX009 (ip), vehicle: saline): 0 of 3

NCCc1c[nH]c2ccccc12
survivor count (T/C endpoint: mean survival time, dose: 400.0 mg/kg/injection, schedule: Q01DX001 (ip), vehicle: saline): 0 of 4

CCOC(=O)NP(=O)(N1CC1(C)C)N1CC1(C)C (centres undefined)
T/C (T/C endpoint: mean survival time, dose: 125.0 mg/kg/injection, schedule: Q01DX010 (ip), vehicle: saline): 135 % of control | survivor count (T/C endpoint: mean survival time, dose: 500.0 mg/kg/injection, schedule: Q01DX010 (ip), vehicle: saline): 2 of 6 and 3 of 6

COC(=O)c1ccc(N=NN(C)C)cc1
T/C (T/C endpoint: median survival time, dose: 23.0 mg/kg/injection, schedule: Q01DX009 (ip), vehicle: steroid suspending solution): 135 % of control | T/C (T/C endpoint: median survival time, dose: 39.0 mg/kg/injection, schedule: Q01DX009 (ip), vehicle: steroid suspending solution): 140 % of control | T/C (T/C endpoint: median survival time, dose: 65.0 mg/kg/injection, schedule: Q01DX009 (ip), vehicle: steroid suspending solution): 140 % of control | T/C (T/C endpoint: median survival time, dose: 65.0 mg/kg/injection, schedule: Q04DX003 (ip), vehicle: steroid suspending solution): 130 % of control | T/C (T/C endpoint: median survival time, dose: 108.0 mg/kg/injection, schedule: Q04DX003 (ip), vehicle: steroid suspending solution): 125 % of control | T/C (T/C endpoint: median survival time, dose: 300.0 mg/kg/injection, schedule: Q01DX001 (ip), vehicle: steroid suspending solution): 140 % of control | survivor count (T/C endpoint: median survival time, dose: 500.0 mg/kg/injection, schedule: Q01DX001 (ip), vehicle: steroid suspending solution): 7 of 8 | survivor count (T/C endpoint: median survival time, dose: 833.0 mg/kg/injection, schedule: Q01DX001 (ip), vehicle: steroid suspending solution): 2 of 8

COc1ccc(C2OCC(c3ccccc3)O2)cc1 (centres undefined)
survivor count (T/C endpoint: mean survival time, dose: 333.0 mg/kg/injection, schedule: Q01DX Z (ip), vehicle: methylcellulose (MC)): 6 of 6
